Taken from: PubChem BioAssay AID1259308 (NCATS, 2017)
This is an unselected part of about 59,000 reagents. About 1,510 of all reagents (2.6%) count as active. 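Calls use total luciferase alone and ignore viability, so some active siRNAs may act by altering cell number.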 Entries without a mark were called inactive. Reagents against one gene are numbered here. Further read-outs or replicates are left out here. Reagent sequences are not shown.

Purpose: 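Genes whose loss raises luciferase production in HEK293 cells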 (primary screen)
Cell system: human HEK293 embryonic kidney cells stably expressing firefly luciferase (HEK-CMV-Luc2-Hygro)
Reagent: single siRNA against human genes, 0.8 pmol siRNA per well
Time to read-out: 72 h
Read-out: 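Reporter luminescence and viable-cell signal on separate replicate plates, given as percent of non-targeting control and median/MAD z-scores, plus per-cell luciferase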
Reading the numbers: total luciferase, z-score: higher = more reporter protein produced
Hit rule: 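An siRNA counts as active if its total luciferase robust z-score exceeds 3; genes with two or more such siRNAs out of three were retested with fresh siRNAs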
Calls: active = raised luciferase; inactive = no rise

LYSMD3 (GeneID 116068) #1 → total luciferase, z-score = 1.02
LYSMD3 (GeneID 116068) #2 → total luciferase, z-score = -0.16
LYSMD3 (GeneID 116068) #3 → total luciferase, z-score = 1.71
WDR5B (GeneID 54554) #1 → total luciferase, z-score = -2.31
WDR5B (GeneID 54554) #2 → total luciferase, z-score = -0.474
WDR5B (GeneID 54554) #3 → total luciferase, z-score = -2.21
SLC22A10 (GeneID 387775) #1 → total luciferase, z-score = -0.294
SLC22A10 (GeneID 387775) #2 → total luciferase, z-score = 0.466
SLC22A10 (GeneID 387775) #3 → total luciferase, z-score = 0.572
ANKRD24 (GeneID 170961) #1 → total luciferase, z-score = 0.335
ANKRD24 (GeneID 170961) #2 → total luciferase, z-score = -2.47
ANKRD24 (GeneID 170961) #3 → total luciferase, z-score = -0.279
SIRT6 (GeneID 51548) #1 → total luciferase, z-score = -0.0717
SIRT6 (GeneID 51548) #2 → total luciferase, z-score = 0.51
SIRT6 (GeneID 51548) #3 → total luciferase, z-score = 0.442
LINC02226 (GeneID 729506) #1 → total luciferase, z-score = 1.26
LINC02226 (GeneID 729506) #2 → total luciferase, z-score = -1.56
LINC02226 (GeneID 729506) #3 → total luciferase, z-score = -0.47
HIBADH (GeneID 11112) #1 → total luciferase, z-score = 0.434
HIBADH (GeneID 11112) #2 → total luciferase, z-score = 0.228
HIBADH (GeneID 11112) #3 → total luciferase, z-score = -2.46

Copied from the list.
LINC02226 (GeneID 729506) #2, total luciferase, z-score: -1.56
HIBADH (GeneID 11112) #3, total luciferase, z-score: -2.46
